# Measured values reported in publication PMC7819943, “Rice protein-binding microarrays: a tool to detect cis-acting elements near promoter regions in rice”.
# Some of the results follow.
# Biological target: T1, OsSMF1 (Oryza sativa, UniProt Q6ZLB0 1-436)
# T1 sequence: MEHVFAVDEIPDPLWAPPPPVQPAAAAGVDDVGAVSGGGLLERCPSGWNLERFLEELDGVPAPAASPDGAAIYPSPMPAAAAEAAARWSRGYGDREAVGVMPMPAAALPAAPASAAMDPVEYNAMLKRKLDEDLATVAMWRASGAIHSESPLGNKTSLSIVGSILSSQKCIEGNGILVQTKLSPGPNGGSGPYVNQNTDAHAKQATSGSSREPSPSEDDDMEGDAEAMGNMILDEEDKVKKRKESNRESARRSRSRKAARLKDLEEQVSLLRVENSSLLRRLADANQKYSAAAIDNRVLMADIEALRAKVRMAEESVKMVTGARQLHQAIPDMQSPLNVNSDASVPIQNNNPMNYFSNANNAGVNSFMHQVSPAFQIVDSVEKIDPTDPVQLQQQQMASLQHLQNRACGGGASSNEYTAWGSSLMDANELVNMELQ
# Test: protein-binding microarray (RPBM); PBS, 2% BSA, 51.3 ng/ul salmon testes DNA, 50 uM zinc acetate, 200 nM TF, 25 C, 1 h; high values mean tight binding
# Conditions: protein: recombinant; tags: N-terminal polyhistidine and DsRed monomer fusion (pET32a); chain copies: 2; label: CyDye5-dUTP incorporated in the synthesized complementary strand; 3' TTTTT single-stranded linker to array surface; dsDNA, one strand shown
# Method in brief: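 Transcription factors were made in E. coli BL21-CodonPlus as N-terminal fusions to a polyhistidine tag and DsRed, then purified on Ni–NTA. After primer extension with Cy5-dUTP and blocking with 2% BSA, a custom Agilent array was exposed for 1 h at 25 °C to 200 nM protein in PBS, 2% BSA, salmon testes DNA and 50 µM zinc acetate. Washed arrays were scanned on an Axon 4000B, and the binding signal is per-feature fluorescence intensity in arbitrary units.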
row,Sequence,binding signal
1,GGAGTTGTGCAGCCGCACCCAGTCATCCACTATCTCCTTCCGGAGTCACCTAGTGCAG,3440 fluorescence intensity (a.u.)
2,GTATCCCGATGACAAGTTGAGGGACCTTCGGTGTACTTTTCGGAGTCACCTAGTGCAG,16200 fluorescence intensity (a.u.)
3,CGCAGTCACCTCACCACACGTCGATGGACACGGCGCACCACGGAGTCACCTAGTGCAG,3490 fluorescence intensity (a.u.)
4,TATCTATAGGCTCTCTATAAGAGATCCATGTCAGTATATTCGGAGTCACCTAGTGCAG,6470 fluorescence intensity (a.u.)
5,CGCGCGCCCGCTCCACACCACCGACCCGTGGCAACGTTTCCGGAGTCACCTAGTGCAG,4100 fluorescence intensity (a.u.)
6,CATCGCCGACAGCGACACGTTAGTACAATCACTGTACTCCCGGAGTCACCTAGTGCAG,5100 fluorescence intensity (a.u.)
7,CAGCCATACCATCATCATCAACATCCTCCTCCTCCTCATCCGGAGTCACCTAGTGCAG,3390 fluorescence intensity (a.u.)
8,AATGTGACTCCACCTACTTAGTCCTGAGGCCACGTGGAATCGGAGTCACCTAGTGCAG,5800 fluorescence intensity (a.u.)
9,AGATCGACACGTTAGTCTACACACCTATGCGTGCCTATGCCGGAGTCACCTAGTGCAG,3580 fluorescence intensity (a.u.)
10,AAACATTATTAAATAGGTGTATGAATGACAGTCATACTTGCGGAGTCACCTAGTGCAG,3490 fluorescence intensity (a.u.)
11,TCCAAGCACCGAGAGCCCGATTCACCGACCACGCCCACCGCGGAGTCACCTAGTGCAG,3880 fluorescence intensity (a.u.)
12,CAGCCAACGACTAGACAACATGCTCCACCTTTGCAAATCCCGGAGTCACCTAGTGCAG,3610 fluorescence intensity (a.u.)
13,ATTGGTAAATTTATGACAGAAACCGTAGCAAGAAACTATTCGGAGTCACCTAGTGCAG,11500 fluorescence intensity (a.u.)
14,AAGAACTTTGATATATGACTAGCGTAGCACGTGGAGGATCCGGAGTCACCTAGTGCAG,4540 fluorescence intensity (a.u.)
15,GGGGACATTACTCCGTGGTTTACATGTCATCCAAATAGTTCGGAGTCACCTAGTGCAG,5320 fluorescence intensity (a.u.)
16,TCACAATCAGTTGATTACTAGCCACAACTTTCAATCCTAACGGAGTCACCTAGTGCAG,3360 fluorescence intensity (a.u.)
17,ATCGTAGATTTGATATGAGTGCTCGTATTTATGGTTAATTCGGAGTCACCTAGTGCAG,3350 fluorescence intensity (a.u.)
18,AGGATAGGGAGAGAGGTGAAAGAGACACGGAGGAGAGGGACGGAGTCACCTAGTGCAG,3500 fluorescence intensity (a.u.)
19,GGAGCCACGTCGGCCAGCGGCCTCCGCCGTCGAGCTTTTCCGGAGTCACCTAGTGCAG,5410 fluorescence intensity (a.u.)
20,AATTCTCCAAGCCCTGTGTTGCATCTGCATGCCATCTCATCGGAGTCACCTAGTGCAG,25300 fluorescence intensity (a.u.)
21,ACCAGTCCCAAATCAAACAGTCCTACTAGTTGCATTTTGTCGGAGTCACCTAGTGCAG,47200 fluorescence intensity (a.u.)

row,Sequence,binding signal
1,CCCACGGGAGAATTCCCGGCCGCGCGGCGCGCGAGCACCACGGAGTCACCTAGTGCAG,5740 fluorescence intensity (a.u.)
2,TCGACGTGTCGGCCAGGTTCCAGCGTGGCAGCCGTCTATACGGAGTCACCTAGTGCAG,4490 fluorescence intensity (a.u.)
3,CCCATACATGTAGGGATGACTAGGCGCTGGTAACCAATTACGGAGTCACCTAGTGCAG,7120 fluorescence intensity (a.u.)
4,CATGGCGGAGCCAAGAGCATCTCACTAACACTAGTATCGACGGAGTCACCTAGTGCAG,26500 fluorescence intensity (a.u.)
5,TGGAGATGGATGATGACTTTGAGGGATTGTCATCGAGGCACGGAGTCACCTAGTGCAG,4040 fluorescence intensity (a.u.)
6,TGTTAAATTCGTCTCGCAAAATAGCCTAAGGGTTATAGAACGGAGTCACCTAGTGCAG,40500 fluorescence intensity (a.u.)
7,CGACGACGGGGAACATGGGTGACGGCAGGAGCGGCGGTGTCGGAGTCACCTAGTGCAG,3470 fluorescence intensity (a.u.)
8,ATTACTTGTTTCATCCATATTGGGTCACTGTAATTTTCCTCGGAGTCACCTAGTGCAG,3730 fluorescence intensity (a.u.)
9,CGTCGAACCGCCCACGCGTCCCCTTTGCTGATGTGCTCGCCGGAGTCACCTAGTGCAG,26800 fluorescence intensity (a.u.)
10,CTGATCCTTCTCTTCCTCCTCCTCGTCGTCATCCTTCTTGCGGAGTCACCTAGTGCAG,4190 fluorescence intensity (a.u.)
11,TAGCACTATGCTGCCCACTTCGAGCTCGAGGTACACGTCACGGAGTCACCTAGTGCAG,8890 fluorescence intensity (a.u.)
12,CGCCCGGAGCGGGCCGACCACCACCACCGCCACCTCGCAGCGGAGTCACCTAGTGCAG,4250 fluorescence intensity (a.u.)
13,TGTGGTGGCGAGCGGCACGGAGGCGGGGCGGTGGAGGGAGCGGAGTCACCTAGTGCAG,3980 fluorescence intensity (a.u.)
14,GAGGAGCTCTGTACCAATAAAGACAACGTGGCAGCTATTCCGGAGTCACCTAGTGCAG,8220 fluorescence intensity (a.u.)
15,TCGATCCCCACCTCCGACGCGGCGATCCCCACCGCCATCGCGGAGTCACCTAGTGCAG,4310 fluorescence intensity (a.u.)
16,AAAATTGTTCAAAGGATGGCGTAACTTTGGCGTGGAATTACGGAGTCACCTAGTGCAG,3180 fluorescence intensity (a.u.)
17,CTAGCAGTAGCTTAGCTAGGCAGGGAGGGCACAAGCAGCACGGAGTCACCTAGTGCAG,3230 fluorescence intensity (a.u.)
18,GCCATGCCATAAATAGTGATGTGGCTGTATTCAAACATACCGGAGTCACCTAGTGCAG,5740 fluorescence intensity (a.u.)
19,TCGATCACTCGACCGTTGGACACATACGCGCGCGTGGCGTCGGAGTCACCTAGTGCAG,4050 fluorescence intensity (a.u.)
20,AAAGGAAAATGGAAGGGCCCTACTTATGGCATCACAGGTACGGAGTCACCTAGTGCAG,4190 fluorescence intensity (a.u.)
21,AAATAGAAAGCCCAAACGGATATTTCTTCCTGAGAGCCACCGGAGTCACCTAGTGCAG,35600 fluorescence intensity (a.u.)

# Copied from the list:
# Value for TGTGGTGGCGAGCGGCACGGAGGCGGGGCGGTGGAGGGAGCGGAGTCACCTAGTGCAG under binding signal: 3980 fluorescence intensity (a.u.)
# Value for TGTTAAATTCGTCTCGCAAAATAGCCTAAGGGTTATAGAACGGAGTCACCTAGTGCAG under binding signal: 40500 fluorescence intensity (a.u.)
